Measured values as given in article PMC8287961.
These are yes or no findings as the source states them, for the method shown. In cells and extracts the contact can be indirect. A result given as binding can be weak or reduced; the word gives no strength.

Chains of the proteins cited; added tags and fusions are not shown. Lines headed by an entry give the natural chain unless they say otherwise; changes in a name come on top.
UniProt P83917: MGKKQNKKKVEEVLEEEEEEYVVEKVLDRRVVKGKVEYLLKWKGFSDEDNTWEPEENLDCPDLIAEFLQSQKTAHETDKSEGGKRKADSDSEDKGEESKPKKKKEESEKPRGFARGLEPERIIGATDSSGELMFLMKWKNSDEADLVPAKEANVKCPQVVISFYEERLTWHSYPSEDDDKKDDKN
UniProt Q13263: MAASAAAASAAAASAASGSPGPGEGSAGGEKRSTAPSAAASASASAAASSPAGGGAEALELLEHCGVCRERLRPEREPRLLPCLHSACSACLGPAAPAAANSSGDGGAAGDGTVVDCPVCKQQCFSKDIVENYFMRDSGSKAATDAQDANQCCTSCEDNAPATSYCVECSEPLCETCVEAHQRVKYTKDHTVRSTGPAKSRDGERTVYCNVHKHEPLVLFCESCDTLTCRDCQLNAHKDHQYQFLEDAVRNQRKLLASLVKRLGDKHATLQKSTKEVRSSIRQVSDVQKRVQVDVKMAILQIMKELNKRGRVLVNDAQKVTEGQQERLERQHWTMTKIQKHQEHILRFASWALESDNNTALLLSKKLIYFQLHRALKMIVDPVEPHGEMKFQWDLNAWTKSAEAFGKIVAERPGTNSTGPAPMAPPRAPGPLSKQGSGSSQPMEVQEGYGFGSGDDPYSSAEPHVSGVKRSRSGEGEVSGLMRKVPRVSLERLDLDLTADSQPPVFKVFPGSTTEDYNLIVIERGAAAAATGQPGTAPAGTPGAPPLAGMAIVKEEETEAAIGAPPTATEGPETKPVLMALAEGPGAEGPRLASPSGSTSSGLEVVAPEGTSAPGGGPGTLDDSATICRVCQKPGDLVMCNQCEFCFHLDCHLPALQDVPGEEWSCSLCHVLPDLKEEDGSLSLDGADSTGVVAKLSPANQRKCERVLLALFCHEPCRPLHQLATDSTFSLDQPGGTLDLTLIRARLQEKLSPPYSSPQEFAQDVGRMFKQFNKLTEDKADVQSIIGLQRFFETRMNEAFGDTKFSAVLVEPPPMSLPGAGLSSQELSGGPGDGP

Biological target: GFP-HP1β S89D (HEK293T stable line; GFP-HP1β S89/91D) (UniProt P83917)
Assay: co-IP; nuclear lysates of HEK293T lines stably expressing GFP-HP1β wt or mutants; GFP-Trap; bound fractions on coomassie stained gel; band cut out and identified by mass spectrometry

- binding: binds
Substance: KAP1 (endogenous, HEK293T) (from UniProt Q13263 1-835)
